According to PubChem BioAssay AID758 (NMMLSC, 2007):
Screen size: about 190,000 compounds; about 110 (0.058%) were called active. This list was built around the results that the source calls inconclusive (neither active nor inactive); the mix of calls is not that of the screen.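 The calls were made as follows: active = fluorescent GTP binding to Rab7 beads changed by at least 20 points from the 100% baseline, either direction, mostly lower; inconclusive = compound itself probably fluorescent, or too few beads counted; inactive = the rest.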

system: Rab7 GTPase wild type (dog), Bodipy-FL-GTP binding; assay: modulators of GTP binding to Rab7, primary screen, biochemical, wildtype, multiplex bead flow cytometry (AID 758); settings: GST-Rab7 beads, fluorescent GTP binding, at 10 µM, actives lie on both sides, untreated = 100%, excess cold GTP = 0%;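 also: median green fluorescence of bound Bodipy-FL-GTP per Rab7 bead population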

Row | SMILES | GTP binding activity (percent of control)
1 | CCOC(=O)c1cc[nH]c1C | inactive: 93%
2 | Cc1ccc[n+](CC(=O)Nc2cc(C(F)(F)F)ccc2N2CCOCC2)c1 | inconclusive: 95%
3 | O=C(O)CC(NC(=O)C1CCCCC1)c1ccc(OC2CCCC2)cc1 (stereo not drawn) | inconclusive: 95%
4 | O=C(NC(Cc1c[nH]c2ccccc12)C(=O)O)c1ccc(Br)cc1 (stereo not drawn) | inactive: 93%
5 | Nc1ccc(C2CCCc3nonc32)c2nonc12 (stereo not drawn) | inconclusive: 96%
6 | Cn1nc([N+](=O)[O-])c(C(C#N)c2ccccn2)c(Cl)c1=O (stereo not drawn) | inactive: 93%
7 | O=C(CCS(=O)(=O)c1ccccc1)Nc1ccccc1-c1nc2ccccc2s1 | inactive: 101%
8 | CC(C)OC(=O)CSc1nnc(-c2cnccn2)n1Cc1ccco1 | inconclusive: 95%
9 | c1ccc2sc(NC3=NCN(CC4CCCO4)CN3)nc2c1 (stereo not drawn) | inactive: 95%
10 | CC1CCCCN1C(=O)CSc1nc(N)cc(=O)[nH]1 (stereo not drawn) | inconclusive: 105%
11 | Cc1cc(Cl)cc(Cl)c1OCC(=O)NCc1ccco1 | inconclusive: 94%
12 | COc1ccc(C2=NCCn3cccc32)c(OC)c1 | inconclusive: 103%
13 | Cc1ccc(-c2csc(NC(=O)c3cccc(S(=O)(=O)N4CCN(C)CC4)c3)n2)cc1 | inconclusive: 89%
14 | CC(=O)c1c(C)nc(-c2ccc(Cl)cc2Cl)n1O | inconclusive: 96%
15 | CCN=C1S/C(=C\c2ccc(OC)c(OCC)c2)C(=O)N1CC | inconclusive: 189%
16 | CC(=O)c1cccc(NC(=O)N2CCCC2C(=O)NCCC(C)C)c1 (stereo not drawn) | inconclusive: 106%
17 | Cc1ccc(S(=O)(=O)N(CC(O)CN2CCOCC2)c2cc(Cl)ccc2Cl)cc1 (stereo not drawn) | inconclusive: 102%
18 | CCCC(=O)Oc1ccc(N(C(=O)CCC)S(=O)(=O)c2cccs2)cc1 | inconclusive: 97%
19 | COCCn1cnc2c1c(=O)n(CC(=O)OCC#N)c(=O)n2Cc1ccccc1 | inactive: 97%
20 | C[C@H](NC(=O)OC(C)(C)C)C(=O)NCC1CCC(C(=O)O)CC1 (stereo partly drawn) | inconclusive: 103%

Row | SMILES | GTP binding activity (percent of control)
21 | O=C(COC(=O)c1ccccc1C(=O)c1ccccc1)NCc1ccc(F)cc1 | inactive: 95%
22 | COc1cc(/C=N/NC(=O)[C@H](Cc2c[nH]c3ccccc23)NC(=O)OCC(C)C)cc([N+](=O)[O-])c1O | inconclusive: 92%
23 | COc1ccc(CCCc2nnc(SCC(=O)N/N=C\c3ccc(O)c(OC)c3)o2)cc1C | inconclusive: 94%
24 | Cc1cc(C)nc(N2CCCC(C(=O)NC(C)C)C2)n1 (stereo not drawn) | inactive: 102%
25 | Cc1cc(C)c(/C([O-])=C(/C(=S)Nc2ccc(SC(F)F)cc2)[n+]2ccccc2)cc1C | inconclusive: 88%
26 | COc1ccccc1NC(=O)C(=O)N(c1cccnc1)C(C(=O)NC(C)(C)C)c1ccccc1F (stereo not drawn) | inconclusive: 96%
27 | c1ccc2c(-c3cn4ccccc4n3)c[nH]c2c1 | inactive: 111%
28 | CN(C(=O)C1CCCO1)c1nnc(-c2ccncc2)s1 (stereo not drawn) | inactive: 95%
29 | O=C(/C=C/c1ccc(F)cc1)NC(Cc1c[nH]c2ccccc12)C(=O)O (stereo not drawn) | inconclusive: 89%
30 | Cc1ccc(NC(=S)N(CCN2CCCCC2)Cc2ccco2)cc1Cl | inactive: 103%
31 | CCOC(=O)C1=C(N)Oc2cc(O)ccc2C1c1ccc([N+](=O)[O-])cc1 (stereo not drawn) | inconclusive: 94%
32 | Cc1nn(-c2ccccc2)c2sc(C(=O)O)cc12 | inconclusive: 88%
33 | COc1cc2[nH]c(=S)nc(NCCCOC(C)C)c2cc1OC | inconclusive: 79%
34 | CC(=O)NCCn1c(SCC(=O)NCCc2ccc(S(N)(=O)=O)cc2)nc2ccccc2c1=O | inconclusive: 92%
35 | CC(C)Cc1nnc(NC(=O)CSc2nc(O)c(Cc3ccccc3)c(=O)[nH]2)s1 | inconclusive: 93%
36 | CCOC(=O)c1[nH]ncc1CN1CCCC(C(=O)c2ccc(C(C)(C)C)cc2)C1 (stereo not drawn) | inactive: 97%
37 | CNC(=O)c1cn(-c2ccccc2)c(=O)c2ccccc12 | inconclusive: 104%
38 | CCOc1cc(/C=N/NC(=O)CSc2cccc3cccnc23)ccc1O | inconclusive: 86%
39 | CN(c1ccccc1)S(=O)(=O)c1cccc(C(=O)Nc2nccs2)c1 | inconclusive: 91%
40 | Cn1c(CNc2nc(-c3ccccc3)cs2)nnc1SCC(=O)c1ccccc1 | inconclusive: 101%

Row | SMILES | GTP binding activity (percent of control)
41 | CN=CC1=C(O)C(C(=O)OC)C(C)(C)CC1=O (stereo not drawn) | inactive: 100%
42 | COc1ccc(C2=NN(C(=O)c3cccs3)C(c3ccccc3OC)C2)cc1OC (stereo not drawn) | inconclusive: 92%
43 | CSc1cccc(NC(=O)CSc2ccccc2)c1 | inconclusive: 92%
44 | Cn1c(=O)n(Cc2ccccc2)c(=O)c2c1nc1n2CCN1Cc1ccco1 | inconclusive: 92%
45 | O=C(NC1=NCCS1)c1cc(-c2cccnc2)nc2ccccc12 | inconclusive: 93%
46 | CCN(c1ccccc1)S(=O)(=O)c1cc(C(=O)OC(C)C(=O)Nc2ccc3c(c2)OCCO3)ccc1C (stereo not drawn) | inconclusive: 91%
47 | O=C(c1cc2cc([N+](=O)[O-])ccc2oc1=O)N1CCOCC1 | inconclusive: 101%
48 | Cn1ncc(N=Cc2ccc([N+](=O)[O-])cc2)c1C(=O)Nc1ccccc1 | inactive: 101%
49 | C=CCn1c(N)c(C(=O)OCC)sc1=S | inconclusive: 107%
50 | Cc1ccc(C(=O)NCC(=O)O)s1 | inactive: 95%
51 | C#CCOCCOCCOCCNc1nc(N2CCN(C(=O)C([C@@H](C)CC)n3cc(C(N)Cc4ccc(O)cc4)nn3)CC2)nc(N2CCN(C(=O)[C@H](CCC(=O)O)n3cc(C(N)CO)nn3)CC2)n1 (stereo partly drawn) | inactive: 99%
52 | Cc1ccccc1CN1CCN(C(=O)c2cccc(F)c2)CC1 | inconclusive: 103%
53 | O=C(CN1C(=O)C2C3C=CC(C3)C2C1=O)NCCc1ccccc1Cl (stereo not drawn) | inconclusive: 104%
54 | C/C(=N\NC(=O)c1ccc(Cl)cc1)c1cccc(NC(=O)C(C)C)c1 | inconclusive: 92%
55 | CCC(/C=C1\Sc2ccc(OC)cc2N1CCO)=C\c1sc2ccc(OC)cc2[n+]1CCO | inactive: 90%
56 | O=C(CSCc1ccccc1)N=Nc1c(O)[nH]c2ccccc12 | inconclusive: 97%
57 | Cc1cccc(NS(=O)(=O)c2cc(C(=O)N3CCOCC3)ccc2Cl)c1 | inactive: 98%
58 | CSc1nc2c(c(=O)[nH]1)C(c1ccncc1)C(C(=O)OC(C)C)=C(C)N2 (stereo not drawn) | inconclusive: 105%

In a second layout: results already given.
Row	SMILES	GTP binding activity (percent of control)
42	COc1ccc(C2=NN(C(=O)c3cccs3)C(c3ccccc3OC)C2)cc1OC (stereo not drawn)	inconclusive: 92%
43	CSc1cccc(NC(=O)CSc2ccccc2)c1	inconclusive: 92%
44	Cn1c(=O)n(Cc2ccccc2)c(=O)c2c1nc1n2CCN1Cc1ccco1	inconclusive: 92%
